Measurements: ChEMBL document CHEMBL5674883, “The Heterochromatin Landscape in Migrating Cells and the Importance of H3K27me3 for Associated Transcriptome Alterations” (Cells, 2018)
The source gives many values for each of these; only a part stands here.

The chains behind the UniProt entries cited, without tags or fusion partners.
UniProt Q61188, whole entry: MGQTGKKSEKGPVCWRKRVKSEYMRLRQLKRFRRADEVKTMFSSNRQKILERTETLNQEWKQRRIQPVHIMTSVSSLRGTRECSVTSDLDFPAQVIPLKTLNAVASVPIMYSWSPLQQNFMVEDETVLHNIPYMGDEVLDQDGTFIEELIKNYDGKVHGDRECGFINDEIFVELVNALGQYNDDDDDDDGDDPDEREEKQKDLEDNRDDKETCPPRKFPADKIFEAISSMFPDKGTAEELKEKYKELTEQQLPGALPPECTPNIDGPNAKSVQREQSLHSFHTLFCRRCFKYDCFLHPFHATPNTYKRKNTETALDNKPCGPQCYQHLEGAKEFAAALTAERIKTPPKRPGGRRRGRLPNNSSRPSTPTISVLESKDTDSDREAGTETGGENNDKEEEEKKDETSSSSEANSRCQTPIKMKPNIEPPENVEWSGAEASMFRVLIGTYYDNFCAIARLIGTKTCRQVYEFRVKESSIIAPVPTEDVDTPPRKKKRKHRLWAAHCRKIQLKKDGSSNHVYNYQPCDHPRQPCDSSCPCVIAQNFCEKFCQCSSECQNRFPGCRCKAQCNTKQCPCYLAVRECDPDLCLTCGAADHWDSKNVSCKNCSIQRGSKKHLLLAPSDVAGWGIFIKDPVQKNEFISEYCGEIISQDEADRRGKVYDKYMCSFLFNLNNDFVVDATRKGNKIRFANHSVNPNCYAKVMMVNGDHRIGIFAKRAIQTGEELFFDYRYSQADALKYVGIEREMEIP

What was measured:
Assay type in all cases: cell-based
[1] = biological target: T1, RNA polymerase II (Mus musculus) (UniProt P08775+Q8CFI7+P97760+A0A3Q4L2S8+Q80UW8+P61219+P62488+Q923G2+P60898+O08740+Q63871+P62876); experiment: Inhibition of RNA polymerase II in mouse B16-F1 migrating cells assessed as fold change in Dock11-RNA stability at 0.1 mM measured by ChIP-seq analysis relative to control cells
[2] = biological target: T1, RNA polymerase II (Mus musculus); experiment: Inhibition of RNA polymerase II in mouse B16-F1 migrating cells assessed as fold change in Clock-RNA stability at 0.1 mM measured by ChIP-seq analysis relative to control cells
[3] = biological target: T1, RNA polymerase II (Mus musculus); experiment: Inhibition of RNA polymerase II in mouse B16-F1 migrating cells assessed as fold change in Snx3-RNA stability at 0.1 mM measured by ChIP-seq analysis relative to control cells
[4] = biological target: T1, RNA polymerase II (Mus musculus); experiment: Inhibition of RNA polymerase II in mouse B16-F1 migrating cells assessed as fold change in Pi4k2b-RNA stability at 0.1 mM measured by ChIP-seq analysis relative to control cells
[5] = biological target: T1, RNA polymerase II (Mus musculus); experiment: Inhibition of RNA polymerase II in mouse B16-F1 migrating cells assessed as fold change in Ptov1-RNA stability at 0.1 mM measured by ChIP-seq analysis relative to control cells
[6] = biological target: T1, RNA polymerase II (Mus musculus); experiment: Inhibition of RNA polymerase II in mouse B16-F1 migrating cells assessed as fold change in Trim23-RNA stability at 0.1 mM measured by ChIP-seq analysis relative to control cells
[7] = biological target: T1, RNA polymerase II (Mus musculus); experiment: Inhibition of RNA polymerase II in mouse B16-F1 migrating cells assessed as fold change in Rbck1-RNA stability at 0.1 mM measured by ChIP-seq analysis relative to control cells
[8] = biological target: T1, RNA polymerase II (Mus musculus); experiment: Inhibition of RNA polymerase II in mouse B16-F1 migrating cells assessed as fold change in Aifm1-RNA stability at 0.1 mM measured by ChIP-seq analysis relative to control cells
[9] = biological target: T1, RNA polymerase II (Mus musculus); experiment: Inhibition of RNA polymerase II in mouse B16-F1 migrating cells assessed as fold change in Zfp326-RNA stability at 0.1 mM measured by ChIP-seq analysis relative to control cells
[10] = biological target: T1, RNA polymerase II (Mus musculus); experiment: Inhibition of RNA polymerase II in mouse B16-F1 migrating cells assessed as fold change in Tom1l1-RNA stability at 0.1 mM measured by ChIP-seq analysis relative to control cells
[11] = biological target: T1, RNA polymerase II (Mus musculus); experiment: Inhibition of RNA polymerase II in mouse B16-F1 migrating cells assessed as fold change in Usp8-RNA stability at 0.1 mM measured by ChIP-seq analysis relative to control cells
[12] = biological target: T1, RNA polymerase II (Mus musculus); experiment: Inhibition of RNA polymerase II in mouse B16-F1 migrating cells assessed as fold change in Ckb-RNA stability at 0.1 mM measured by ChIP-seq analysis relative to control cells
[13] = biological target: T1, RNA polymerase II (Mus musculus); experiment: Inhibition of RNA polymerase II in mouse B16-F1 migrating cells assessed as fold change in Smc4-RNA stability at 0.1 mM measured by ChIP-seq analysis relative to control cells
[14] = biological target: T1, RNA polymerase II (Mus musculus); experiment: Inhibition of RNA polymerase II in mouse B16-F1 migrating cells assessed as fold change in 9530082P21Rik-RNA stability at 0.1 mM measured by ChIP-seq analysis relative to control cells
[15] = biological target: T1, RNA polymerase II (Mus musculus); experiment: Inhibition of RNA polymerase II in mouse B16-F1 migrating cells assessed as fold change in Ift74-RNA stability at 0.1 mM measured by ChIP-seq analysis relative to control cells
[16] = biological target: T1, RNA polymerase II (Mus musculus); experiment: Inhibition of RNA polymerase II in mouse B16-F1 migrating cells assessed as fold change in Myef2-RNA stability at 0.1 mM measured by ChIP-seq analysis relative to control cells
[17] = biological target: T1, RNA polymerase II (Mus musculus); experiment: Inhibition of RNA polymerase II in mouse B16-F1 migrating cells assessed as fold change in Ppme1-RNA stability at 0.1 mM measured by ChIP-seq analysis relative to control cells
[18] = biological target: T1, RNA polymerase II (Mus musculus); experiment: Inhibition of RNA polymerase II in mouse B16-F1 migrating cells assessed as fold change in Hmgn5-RNA stability at 0.1 mM measured by ChIP-seq analysis relative to control cells
[19] = biological target: T1, RNA polymerase II (Mus musculus); experiment: Inhibition of RNA polymerase II in mouse B16-F1 migrating cells assessed as fold change in Eif1b-RNA stability at 0.1 mM measured by ChIP-seq analysis relative to control cells
[20] = biological target: T1, RNA polymerase II (Mus musculus); experiment: Inhibition of RNA polymerase II in mouse B16-F1 migrating cells assessed as fold change in Dapk3-RNA stability at 0.1 mM measured by ChIP-seq analysis relative to control cells
[21] = biological target: Histone-lysine N-methyltransferase EZH2 (Mus musculus) (UniProt Q61188); experiment: Inhibition of EZH2 in mouse B16-F1 migrating cells assessed as fold change in H3K27me3-buffered regulated Stard8-mRNA expression at 3 uM measured by ChIP-seq analysis relative to control cells
[22] = biological target: Histone-lysine N-methyltransferase EZH2 (Mus musculus) (UniProt Q61188); experiment: Inhibition of EZH2 in mouse B16-F1 migrating cells assessed as fold change in H3K27me3-independent regulated D330045A20Rik-mRNA expression at 3 uM measured by ChIP-seq analysis relative to control cells
[23] = biological target: Histone-lysine N-methyltransferase EZH2 (Mus musculus) (UniProt Q61188); experiment: Inhibition of EZH2 in mouse B16-F1 migrating cells assessed as fold change in H3K27me3-buffered regulated Slc12a7-mRNA expression at 3 uM measured by ChIP-seq analysis relative to control cells
[24] = biological target: Histone-lysine N-methyltransferase EZH2 (Mus musculus) (UniProt Q61188); experiment: Inhibition of EZH2 in mouse B16-F1 migrating cells assessed as fold change in H3K27me3-buffered regulated Map3k12-mRNA expression at 3 uM measured by ChIP-seq analysis relative to control cells
[25] = biological target: Histone-lysine N-methyltransferase EZH2 (Mus musculus) (UniProt Q61188); experiment: Inhibition of EZH2 in mouse B16-F1 migrating cells assessed as fold change in H3K27me3-independent regulated Abhd18-mRNA expression at 3 uM measured by ChIP-seq analysis relative to control cells
[26] = biological target: Histone-lysine N-methyltransferase EZH2 (Mus musculus) (UniProt Q61188); experiment: Inhibition of EZH2 in mouse B16-F1 migrating cells assessed as fold change in H3K27me3-buffered regulated Lrrc27-mRNA expression at 3 uM measured by ChIP-seq analysis relative to control cells
[27] = biological target: Histone-lysine N-methyltransferase EZH2 (Mus musculus) (UniProt Q61188); experiment: Inhibition of EZH2 in mouse B16-F1 migrating cells assessed as fold change in H3K27me3-buffered regulated Pif1-mRNA expression at 3 uM measured by ChIP-seq analysis relative to control cells
[28] = biological target: Histone-lysine N-methyltransferase EZH2 (Mus musculus) (UniProt Q61188); experiment: Inhibition of EZH2 in mouse B16-F1 migrating cells assessed as fold change in H3K27me3-buffered regulated Ccnl1-mRNA expression at 3 uM measured by ChIP-seq analysis relative to control cells
[29] = biological target: Histone-lysine N-methyltransferase EZH2 (Mus musculus) (UniProt Q61188); experiment: Inhibition of EZH2 in mouse B16-F1 migrating cells assessed as fold change in H3K27me3-buffered regulated Ccne2-mRNA expression at 3 uM measured by ChIP-seq analysis relative to control cells
[30] = biological target: Histone-lysine N-methyltransferase EZH2 (Mus musculus) (UniProt Q61188); experiment: Inhibition of EZH2 in mouse B16-F1 migrating cells assessed as fold change in H3K27me3-buffered regulated Nceh1-mRNA expression at 3 uM measured by ChIP-seq analysis relative to control cells

OC[C@H]1O[C@@H](n2cnc3cc(Cl)c(Cl)cc32)[C@H](O)[C@@H]1O
log2FC [1]: -0.56
log2FC [2]: -0.64
log2FC [3]: 0.43
log2FC [4]: -0.64
log2FC [5]: 0.38
log2FC [6]: -0.83
log2FC [7]: 0.38
log2FC [8]: -0.44
log2FC [9]: -0.7
log2FC [10]: -0.44
log2FC [11]: -0.46
log2FC [12]: 0.44
log2FC [13]: -0.84
log2FC [14]: 0.4
log2FC [15]: -0.96
log2FC [16]: -0.65
log2FC [17]: 0.51
log2FC [18]: -1.13
log2FC [19]: 0.54
log2FC [20]: 0.47

CCCc1cc(C)[nH]c(=O)c1CNC(=O)c1cc(-c2ccnc(N3CCN(C)CC3)c2)cc2c1cnn2C(C)C
log2FC [21]: -0.63
log2FC [22]: -0.79
log2FC [23]: -0.38
log2FC [24]: -0.49
log2FC [25]: -0.75
log2FC [26]: 0.42
log2FC [27]: -0.49
log2FC [28]: -0.53
log2FC [29]: -0.44
log2FC [30]: 0.39
